Experimental findings from PubChem BioAssay AID1487 (National Center for Advancing Translational Sciences (NCATS), 2009) are described below.

Some of the results follow. The main result of the screen is listed elsewhere. These columns were measured beside it and carry no call. Most of these compounds were active or inconclusive in the main read-out, so they are no random draw. Potencies come from curve fits of mixed quality, noted in brackets.

The test can be described thus: qHTS Assay for Modulators of Lamin A Splicing. Conditions: HeLa LMNA splicing GFP/RFP minigene ratio, 48 h. The essentials: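 Read-out is the ratio of GFP to DsRed2 object intensity, acquired by 488 nm laser-scanning cytometry on HeLa lamin A-EGFP minigene reporter cells. Compound incubation 48 hrs at 37 °C in Opti-MEM with 2% FBS; DMSO 0.5% final.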
The mark [1] stands for this setting: measured here: GFP splicing reporter channel.
The mark [2] stands for this setting: measured here: RFP viability control channel.

Broadly, the AC50 is the concentration giving half of the maximal activity seen. Turning to `CC(=O)c1ccc(NC(=O)CN2C(=O)/C(=C/C=C/c3ccccc3)SC2=S)cc1`, the AC50 is 11.2 µM [rising, partial curve, poor fit] under setting [1] and 14.1 µM [rising, single point] under setting [2].
Consider `CCNC(=O)NC(=O)C(C)OC(=O)C1CCN(S(=O)(=O)c2ccccc2C(=O)OC)CC1` (centres undefined), for which, under setting [2], the AC50 is 0.891 µM [falling, full curve, poor fit].
Regarding `CCn1cc(C(=O)Nc2ccc(C)c([N+](=O)[O-])c2)cn1`, the half-maximal activity concentration (AC50) under setting [1] is 5.62 µM [rising, partial curve] and the AC50 under setting [2] was 8.91 µM [rising, partial curve, poor fit].
Take `CCCOc1ccc(/C(O)=C2/C(=O)C(=O)N(CCOC)C2c2cccnc2)cc1` (centres undefined): under setting [1], the concentration at half-maximal activity (AC50) is 0.0398 µM [rising, full curve, poor fit].
Consider `Cc1cc(Cl)cc(C)c1OCCCCn1ccnc1`, for which the AC50 runs as follows: under setting [1], 10 µM [rising, single point]; under setting [2], 12.6 µM [rising, single point].
For the compound `CCOc1ccc(N(CC(=O)Nc2cccc(OC)c2)S(=O)(=O)c2c(C)noc2C)cc1`, the AC50 under setting [2] is 12.6 µM [rising, partial curve].
Still for that read-out and setting: the value for `C=C1CCC2C(C)(C)[C@H](O)CC[C@@]2(C)[C@@H]1COc1cc(=O)oc2ccccc12` (some centres undefined) was 10 µM [rising, single point].
As for `CC(C)NC(=O)C1CCN(C2CCN(Cc3ccc4cccc(F)c4n3)CC2)CC1`, the AC50 under setting [1] was 0.0398 µM [rising, full curve].
With `CCOC(=O)c1sc(N)c(C#N)c1CSc1nc2ccc(OCC)cc2[nH]1`, the AC50 runs as follows: under setting [1], 12.6 µM [rising, single point]; under setting [2], 5.01 µM [rising, partial curve].
Consider `COc1ccc(S(=O)(=O)Nc2ccc(O)c(Sc3nc4ccccc4s3)c2)cc1`, for which the half-maximal activity concentration (AC50) under setting [2] was 25.1 µM [rising, single point].
Consider `Nc1c(O)ccc2c1C(=O)c1ccccc1C2=O`, for which, under setting [2], the AC50 was 14.1 µM [rising, partial curve, poor fit].
With `Cc1ccc(C(=O)Nc2ncc(Cc3ccccc3)s2)o1`, the AC50 under setting [1] was 31.6 µM [rising, single point] and the AC50 under setting [2] is 14.1 µM [rising, partial curve].
As for `CN(C)S(=O)(=O)c1ccc(NC(=O)CN2CCC(Cc3ccccc3)CC2)cc1`, the AC50 under setting [1] was 25.1 µM [falling, single point].
As for `Cn1c(CNc2ccc(Cl)cc2)nc2ccccc21`, the AC50 under setting [2] is 31.6 µM [rising, single point].
As to `O=C(COc1ncnc2scc(-c3ccccc3)c12)NC1CCCc2ccccc21` (centres undefined), the concentration at half-maximal activity (AC50) under setting [1] was 14.1 µM [rising, partial curve] and the AC50 under setting [2] is 12.6 µM [rising, single point].
Consider `COc1cccc2[nH]c3c(N4CCN(Cc5ccc6c(c5)OCO6)CC4)ncnc3c12`, for which, under setting [2], the concentration at half-maximal activity (AC50) is 22.4 µM [rising, single point].
Take `O=C(Nc1nc(-c2cccs2)c(C(=O)C(F)(F)F)s1)c1ccccc1`: the AC50 is, setting by setting: under setting [1], 28.2 µM [rising, single point]; under setting [2], 12.6 µM [rising, partial curve, poor fit].
`COc1ccc(NC(=O)/C=C/c2ccco2)cn1`: the half-maximal activity concentration (AC50) under setting [1] is 0.316 µM [falling, full curve, poor fit].
On to `Cc1cccc(N2Cc3ccccc3C2=NC(=O)c2ccc(Cl)nc2)c1`, for which the AC50 under setting [2] was 0.316 µM [rising, partial curve].
The same measure, in the same setting: with `CC(=O)NC1=C(NC2CCS(=O)(=O)C2)C(=O)c2ccccc2C1=O` (centres undefined) the figure was 20 µM [rising, partial curve, poor fit]; with `COc1ccc(-n2c(CNc3ccc(C)cc3)nnc2SCc2ccccc2)cc1`, 31.6 µM [rising, partial curve].
The same measure, in the same setting: with `Cc1csc(NC(=O)CSc2ccc(-c3ccc(F)cc3)nn2)n1` the figure was 35.5 µM [falling, single point].
`CN(C)CCN(C)Cc1ccccc1Sc1cccc2ccccc12`: the AC50 is, setting by setting: under setting [1], 15.8 µM [rising, single point]; under setting [2], 17.8 µM [rising, single point].
For `CCOC(=O)C1CCCN(CC(=O)Nc2c(C(=O)OC)[nH]c3ccc(C)cc23)C1` (centres undefined), the AC50 under setting [2] was 35.5 µM [rising, single point].
The same measure, in the same setting: with `CCCCN(CC(=O)NCc1ccc(Cl)cc1)S(=O)(=O)c1ccc2c(c1)OCCO2` the figure was 12.6 µM [rising, single point].
Consider `Cc1c(NC(=O)Cc2noc3ccccc23)cccc1[N+](=O)[O-]`, for which the AC50 under setting [1] is 0.0891 µM [rising, full curve, poor fit].
Same read-out and setting: the value for `COc1cc(-c2cc(C(=O)Nc3ccc(S(=O)(=O)NCc4ccco4)cc3)c3ccccc3n2)cc(OC)c1OC` was 0.01 µM [falling, full curve, poor fit]; that for `O=C(CSc1ccc(-c2ccccn2)nn1)N1CCc2ccccc21` was 12.6 µM [rising, single point].
Consider `Cc1cc(C)cc(Oc2nc3c(C)cccn3c(=O)c2/C=C(\C#N)C(=O)NC2CCS(=O)(=O)C2)c1` (centres undefined), for which the AC50 reads like this: under setting [1], 6.31 µM [falling, partial curve]; under setting [2], 35.5 µM [falling, single point].
As to `Cc1ccc2nc(C)cc(Cl)c2c1`, the AC50 was 0.0501 µM [falling, full curve, poor fit] under setting [1] and 2.82 µM [falling, full curve, poor fit] under setting [2].
As for `COC(=O)N/N=C/c1cc(Cl)cc(Cl)c1OCc1ccccc1F`, under setting [1], the AC50 is 15.8 µM [rising, single point].
Same read-out and setting: the value for `C=CCn1c(C(CC)CC(C)(C)O)n[nH]c1=S` (centres undefined) was 0.0224 µM [rising, full curve, poor fit]; that for `CCOC(=O)c1cnc2ccccc2c1NCCO` was 0.0398 µM [rising, full curve].
With `Cc1sc(NC(=O)c2cccnc2)nc1-c1ccccc1`, the AC50 under setting [2] is 2.51 µM [falling, partial curve].
As for `NC(=O)c1cc(N)ccc1N1CCCCC1`, under setting [1], the AC50 is 1 µM [rising, full curve, poor fit].
With `O=C(CCC(=O)Nc1cccc(Cl)c1)N/N=C/c1cc([N+](=O)[O-])ccc1O`, the AC50 runs as follows: under setting [1], 1.78 µM [falling, full curve]; under setting [2], 0.398 µM [falling, partial curve, poor fit].
As for `CCc1cc2c(=O)c(-c3nc4ccccc4n3C)c(C(C)C)oc2c(CN2CCN(C)CC2)c1O`, the concentration at half-maximal activity (AC50) under setting [2] is 31.6 µM [rising, single point].
On the same count and under the same terms, with `COc1ccc(C(=O)N2CCCC(c3nc(-c4cccs4)no3)C2)cc1` (centres undefined) the figure was 14.1 µM [rising, single point].
For `O=C1c2cnc3ncnn3c2CC2c3ccccc3CCN12` (centres undefined), the AC50 is 3.55 µM [rising, partial curve] under setting [1] and 2 µM [rising, full curve, poor fit] under setting [2].
For the compound `Cc1ccc(-c2csc(NC(=O)c3cccs3)n2)cc1`, the AC50 under setting [2] is 14.1 µM [rising, single point].
For `Cc1cc(N2CCCCCC2)nc(-c2ccccc2O)n1`, the AC50 is 35.5 µM [rising, single point] under setting [1] and 35.5 µM [rising, single point] under setting [2].
Turning to `O=c1c2ccccc2nc(SCc2nc3ccccc3s2)n1Cc1ccco1`, the AC50 under setting [2] was 4.47 µM [rising, full curve].
The same measure, in the same setting: with `CC1CCCCN1C(=O)c1cc(-c2ccc(Cl)c(Cl)c2)on1` (centres undefined) the figure was 12.6 µM [rising, partial curve]; with `Cn1c(SCC(=O)N2CCCc3ccccc32)nc2cccnc21`, 17.8 µM [rising, single point].
On the same count and under the same terms, with `COc1ccc(C2C=C(c3ccc(C)cc3)Nc3c(C(=O)Nc4ccccc4)cnn32)cc1` (centres undefined) the figure was 15.8 µM [rising, single point]; with `O=c1c2ccccc2nc(/C=C/c2ccc([N+](=O)[O-])cc2)n1CCCO`, 35.5 µM [rising, single point].
With `CCOC(=O)N1CCN(C(=O)c2ccc3c(=O)n(Cc4ccccc4OC)c(=S)[nH]c3c2)CC1`, the AC50 was 17.8 µM [rising, single point] under setting [1] and 25.1 µM [rising, single point] under setting [2].
In the case of `CCOC(=O)Cn1c(=O)c2c(nc(N3CCCCC3)n2Cc2ccccc2)n(C)c1=O`, the AC50 under setting [2] was 14.1 µM [rising, single point].
`Cc1cccc(N2CCN(C(=O)c3ccc4ncsc4c3)CC2)c1C`: under setting [2], the AC50 was 12.6 µM [rising, partial curve].
On to `CC(C)Cn1c(SCC(=O)N2CCN(S(=O)(=O)c3ccccc3)CC2)nc2ccccc21`, for which the half-maximal activity concentration (AC50) under setting [2] is 25.1 µM [rising, partial curve, poor fit].
As for `C/C(=N\NC(=O)c1cccc(Cl)c1)C1C(=O)c2ccccc2C1=O`, under setting [2], the AC50 is 8.91 µM [rising, single point].
Take `Cn1cc(CN2C[C@H]3CC[C@H]2C3)c(-c2ccccc2F)n1`: the AC50 under setting [2] is 0.01 µM [falling, full curve, poor fit].
As to `O=C(CN1CCN(c2ccc(Cl)cc2)CC1)Nc1ccc(F)cc1`, the AC50 runs as follows: under setting [1], 3.55 µM [rising, single point]; under setting [2], 6.31 µM [rising, single point].
Regarding `CN1CCN(c2nc(-c3cccs3)nc3ccccc23)CC1`, the half-maximal activity concentration (AC50) under setting [2] is 12.6 µM [rising, single point].
In the case of `CC(OC(=O)C1CCN(S(=O)(=O)c2ccc(Cl)cc2)CC1)C(=O)N1CCc2ccccc21` (centres undefined), under setting [2], the AC50 was 12.6 µM [rising, single point].
In the case of `COc1ccc(/C=C/C(=O)c2cc(Br)ccc2O)cc1OC`, the AC50 under setting [1] is 0.0447 µM [falling, full curve, poor fit].
On to `COc1nc(NCCc2ccc(OC)c(OC)c2)nc(OC)n1`, for which the AC50 was 0.2 µM [rising, full curve, poor fit] under setting [1] and 3.55 µM [rising, partial curve, poor fit] under setting [2].
For the compound `Cc1nc(C)c(-c2csc(NCc3ccccc3)n2)s1`, under setting [2], the AC50 was 35.5 µM [rising, single point].
